Source: ChEMBL document CHEMBL3988442, “University of Dundee, Small-Polar-MMV Screening Library” (2021).

By UniProt entry, the sequences of proteins in these tests, tags left out. Residues count along the entry.
UniProt I6X8D2, whole entry: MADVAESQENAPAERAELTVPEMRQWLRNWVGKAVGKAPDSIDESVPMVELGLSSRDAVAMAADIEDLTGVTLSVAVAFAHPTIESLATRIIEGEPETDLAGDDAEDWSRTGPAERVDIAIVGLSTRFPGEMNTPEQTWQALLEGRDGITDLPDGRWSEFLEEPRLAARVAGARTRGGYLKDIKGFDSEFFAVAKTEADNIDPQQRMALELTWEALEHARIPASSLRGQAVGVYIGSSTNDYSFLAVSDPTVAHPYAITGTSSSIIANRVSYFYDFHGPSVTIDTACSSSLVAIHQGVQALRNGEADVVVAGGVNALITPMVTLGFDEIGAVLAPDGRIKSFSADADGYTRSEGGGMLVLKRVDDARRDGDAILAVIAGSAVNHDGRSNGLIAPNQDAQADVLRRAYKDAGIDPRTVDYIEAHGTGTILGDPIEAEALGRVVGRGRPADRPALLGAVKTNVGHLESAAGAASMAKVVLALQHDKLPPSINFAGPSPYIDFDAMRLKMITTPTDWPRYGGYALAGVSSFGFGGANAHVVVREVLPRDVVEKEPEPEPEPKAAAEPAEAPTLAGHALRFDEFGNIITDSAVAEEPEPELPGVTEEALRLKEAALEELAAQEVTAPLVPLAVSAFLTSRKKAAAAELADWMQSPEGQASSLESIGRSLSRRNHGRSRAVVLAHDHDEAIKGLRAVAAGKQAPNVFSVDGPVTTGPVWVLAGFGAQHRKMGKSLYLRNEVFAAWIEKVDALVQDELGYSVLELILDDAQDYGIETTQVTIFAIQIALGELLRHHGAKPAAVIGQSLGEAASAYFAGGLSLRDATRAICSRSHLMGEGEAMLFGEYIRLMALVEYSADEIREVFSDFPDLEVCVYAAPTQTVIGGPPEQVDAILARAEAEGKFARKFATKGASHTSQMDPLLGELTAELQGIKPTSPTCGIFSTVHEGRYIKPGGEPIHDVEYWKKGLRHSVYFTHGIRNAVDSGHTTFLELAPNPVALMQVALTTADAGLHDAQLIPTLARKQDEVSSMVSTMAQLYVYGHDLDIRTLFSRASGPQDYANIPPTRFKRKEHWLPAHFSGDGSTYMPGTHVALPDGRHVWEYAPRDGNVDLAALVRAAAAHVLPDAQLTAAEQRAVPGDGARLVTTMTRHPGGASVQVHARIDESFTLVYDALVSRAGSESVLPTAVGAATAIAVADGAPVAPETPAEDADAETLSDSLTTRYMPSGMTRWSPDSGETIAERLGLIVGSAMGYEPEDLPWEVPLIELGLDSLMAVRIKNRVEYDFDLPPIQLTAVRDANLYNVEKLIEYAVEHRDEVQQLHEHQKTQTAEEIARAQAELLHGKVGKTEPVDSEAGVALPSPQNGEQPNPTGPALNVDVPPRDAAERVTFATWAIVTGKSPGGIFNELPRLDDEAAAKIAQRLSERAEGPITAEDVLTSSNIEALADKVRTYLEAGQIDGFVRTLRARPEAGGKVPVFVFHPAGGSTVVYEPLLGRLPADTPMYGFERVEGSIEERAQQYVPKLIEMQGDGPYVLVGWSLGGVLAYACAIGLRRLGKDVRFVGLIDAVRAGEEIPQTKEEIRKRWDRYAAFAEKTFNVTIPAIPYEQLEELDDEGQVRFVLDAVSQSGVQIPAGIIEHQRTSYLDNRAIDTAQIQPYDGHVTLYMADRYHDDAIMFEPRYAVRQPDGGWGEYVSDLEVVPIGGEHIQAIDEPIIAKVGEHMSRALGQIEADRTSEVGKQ
UniProt A4I591, 1-473: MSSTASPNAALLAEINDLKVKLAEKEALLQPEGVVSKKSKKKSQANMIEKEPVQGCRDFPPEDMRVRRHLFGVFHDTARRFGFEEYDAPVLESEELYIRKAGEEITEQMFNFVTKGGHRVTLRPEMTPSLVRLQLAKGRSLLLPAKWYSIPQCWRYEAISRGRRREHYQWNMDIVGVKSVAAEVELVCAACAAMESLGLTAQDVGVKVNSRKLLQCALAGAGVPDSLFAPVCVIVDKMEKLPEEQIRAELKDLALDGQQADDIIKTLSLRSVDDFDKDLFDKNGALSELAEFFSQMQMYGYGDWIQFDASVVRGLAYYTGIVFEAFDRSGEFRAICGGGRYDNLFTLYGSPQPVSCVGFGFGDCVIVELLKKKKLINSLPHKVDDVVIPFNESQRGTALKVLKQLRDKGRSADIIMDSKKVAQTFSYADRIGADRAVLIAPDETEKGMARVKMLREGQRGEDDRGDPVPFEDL

A: 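Enzyme assay of the thioesterase domain of polyketide synthase 13; the read-out is not stated. Target: Polyketide synthase Pks13, Mycobacterium tuberculosis (UniProt I6X8D2). Concentration: 30 µM. Higher reads as stronger inhibition (inferred from which compounds were picked for retests). About 67,000 compounds were tested under these conditions; 0.46% (about 300) showed 50% or more at least once.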
B: 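Histidine-tRNA ligase, Leishmania infantum (UniProt A4I591). Enzyme assay of histidyl-tRNA synthetase; the read-out is not stated. Compounds at 30 µM. Higher reads as stronger inhibition (inferred: compounds with an IC50 in retests scored well above the rest). The assay is labelled LdHisRS but filed under L. infantum. About 69,000 compounds were tested under these conditions; 0.6% (about 410) showed 50% or more at least once.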

Values are the deposited “Percent Effect”, in %. The controls that fix the scale are not given in the record; negative values are as filed. Compounds were drawn at random from those tested, without regard to their results. A dash means the value is not listed here; it may have been measured.

compound	A	B
N#Cc1cccc(CN2C[C@@H](F)[C@@H](OCc3nc4ccccc4[nH]3)C2)c1	-39.13%	32.43%
O=C1CCC2(CCCN(Cc3ccccc3F)C2)N1CC1CC1 (centres undefined)	-26.54%	13.59%
O=C(NCC(=O)N1CCCC(n2cncn2)C1)OCc1ccccc1 (centres undefined)	-0.09461%	7.895%
Fc1ccc(Cn2ncc3c2CN(c2noc(C4CC4)n2)C3)cc1	-38.51%	8.333%
CC1CN(C)c2ccccc2CN1C(=O)c1ccc[nH]1 (centres undefined)	-10.95%	23.08%
CCn1nc(C)c(CN(CCOC)Cc2ccccn2)c1C	-13.03%	10.75%
Cc1nonc1C(=O)N1CCc2c(ncn2CCc2ccccc2)C1	-54.95%	-1.333%
COc1ccccc1-c1nc(C(=O)N(C)C)n2ccncc12	11.73%	12.41%
c1ccc2sc(N3CCOC(Cn4cccn4)C3)nc2c1 (centres undefined)	-8.929%	33.33%
Cc1noc(C)c1CN1CC[C@@H]2O[C@@H](COCC(C)C)CC[C@@H]21	-19.01%	9.434%
c1csc(CNc2ccccc2Cn2cncn2)c1	-17.72%	17.54%
COCC(=O)N1Cc2cn(C)nc2C(COc2cccnc2)C1 (centres undefined)	-8.539%	6.796%
c1ccc(CN2CC[C@@H]3[C@@H](CO[C@@H]3CNc3ncccn3)C2)nc1	-15.92%	6.944%
O=C(Nc1cc(C(F)(F)F)c[nH]c1=O)C1CCNCC1	0.6339%	10.87%
CN(C)CC(=O)N1CC2(CCN(Cc3ccccc3)C2)C1	-21.17%	19.23%
Cc1n[nH]c(C2CN(C(=O)c3ccc4c(c3)CCCC4)CCO2)n1 (centres undefined)	-22.57%	14.4%
Cc1nc(C)c(CC(=O)N2C[C@H]3CC[C@@H]2CN(C(=O)N(C)C)C3)c(=O)[nH]1	-15.39%	-1.887%
O=C(NCC1CC1)C1CCC2(CCN(C(=O)c3cccs3)CC2)O1 (centres undefined)	-16.08%	4.587%
CC(=O)N(Cc1ncc(C)o1)C1CCN(Cc2noc(C)n2)C1 (centres undefined)	-21.55%	18.67%
COc1ccc(Cl)cc1CS(=O)(=O)CC(=O)NC(C)CCC(C)C (centres undefined)	-40.41%	20%
Cc1ccc2nc(C(=O)N3CCCC[C@]4(C)NC(=O)CCC[C@H]34)cn2c1	-7.968%	24.21%
CN(C)Cc1nn(C)c2c1CCN(C(=O)c1cccnc1)C2	-18.52%	17.43%
CCOC(=O)CNC(=O)N1CCN(c2ncccn2)CC1	-18.58%	-4.717%
CSCCNc1ccc(C(=O)N(C)Cc2ccc3ccccc3n2)cn1	-13.98%	1.266%
Cc1cc(C)n(C2CN(C(=O)Cn3c(C)cc(=O)c4ccccc43)C2)n1	0.04372%	15.05%
CC(C(=O)NCc1ccc(-n2cncn2)nc1)n1ccnc1 (centres undefined)	-22.12%	2.667%
CC1CCCN(C(=O)c2ccc(-c3ccco3)o2)C1 (centres undefined)	6.728%	45%
CC(=O)c1c(C)nn(CC(=O)Nc2ccc(F)cc2)c1C	3.623%	15.65%
O=S(=O)(c1ccc(Cl)cc1)N1C[C@@H]2CCN[C@@H]2C1	-30.23%	21.36%
CCOC(=O)Cn1cnc2nc3n(c2c1=O)CCC3	-10.36%	5.882%
CO[C@H]1[C@@H]2CC[C@H]1CN(c1nc(C)nc3sccc13)C2	-24.8%	21.21%
CCCc1n[nH]c(=O)n1[C@@H](CC)c1ccccc1	-3.771%	20.88%
CC(C)(Cn1cnc(-c2ccccc2)c1-c1ccco1)N1CCOCC1	-40.95%	23.4%
COc1cc2c(cc1OC)S(=O)(=O)N(Cc1ccccc1)C2=O	-40.49%	12.5%
O[C@@H]1CCN(CC2CCOC2)[C@H]1Cc1cccnc1 (some centres undefined)	-6.327%	10.26%
CS(=O)(=O)N1CCC2(CC1)c1ccccc1[C@@H](N1CCSCC1)[C@@H]2O	-35.24%	10.26%
CC(C)c1nn(C)c(N(C)C)c1CNCc1ccc2c(c1)OCO2	-9.671%	13.64%
Cc1cccc(-n2ncc3c2CCCC3NCc2cccc(O)c2)c1C (centres undefined)	-26.23%	28.21%
CCCc1ccc(C(=O)N2CCn3c(nnc3C(C)C)C2)cc1	-7.545%	9.917%
O=C1OCCN1Cc1cccc(F)c1C(F)(F)F	-28.97%	16.39%
COCc1cc(N(C)Cc2cnccn2)nc(C(C)(C)C)n1	-20.28%	6.494%
O=C1CC2(CCSC2)C(=O)N1Cc1coc(-c2ccccc2)n1 (centres undefined)	-5.225%	2.083%
Cc1cc(C2CCCN(CCc3ccc4c(c3)CCO4)C2)n[nH]1 (centres undefined)	-4.437%	-1.205%
O=C(Nc1cc(-c2ccncc2)no1)C1CCCCC1	-23.58%	26.47%
O=C(CSc1ncccn1)N1C[C@H]2CC[C@@H]1CN(Cc1ccncc1)C2	-12.26%	19.23%
CNS(=O)(=O)c1csc(C(=O)N(C)Cc2sccc2C)c1	-17.6%	8.219%
CC(NC(=O)c1cc(-c2cccc(Cl)c2)no1)C(=O)N1CCCC1 (centres undefined)	-27.9%	17.14%
Cn1c2c(ccc1=O)CC(NS(C)(=O)=O)CC2 (centres undefined)	-20.56%	5.109%
COCCN(Cc1ccco1)c1ncc(C#N)cc1Cl	-6.831%	12.5%
c1ccc2oc(N3CCCC3Cn3cncn3)nc2c1 (centres undefined)	11.6%	12.5%
Cc1ccn(-c2ccc(NCc3ccccc3F)nn2)n1	3.026%	17.33%
COC(=O)C1CCN(C(=O)Cn2ccc(-c3ccc(F)cc3)n2)CC1	-10.31%	17.33%
CN(C)C(=O)CN1CCCCC1c1nc(N)ncc1-c1ccccc1 (centres undefined)	-22.58%	8.029%
COc1ccc(N2Cc3nc(N)ncc3C2=O)cc1Cl	7.072%	30%
COc1ccc(NS(=O)(=O)c2cnc(NC(C)=O)s2)cc1	-25.78%	17.24%
c1ccc(-c2nnc(CN3CCOC(Cn4cccn4)C3)o2)cc1 (centres undefined)	-7.404%	5.085%
O=C(Nc1cccc(CN2CCOC2=O)c1)N1CCCCCC1	-5.705%	8.642%
Cc1cccc(CN2CCCC2c2cccc(CCC(=O)O)n2)c1 (centres undefined)	1.706%	26.8%
Cc1cccc(-c2c[nH]c(C3CCCN3C(=O)Cn3cc(C)cn3)n2)c1 (centres undefined)	-	3.333%
CC(C)Oc1ncnc2c1CCN(Cc1cccs1)CC2	-4.187%	7.547%
COc1ccc([C@@H]2CN(C(=O)CCn3cccn3)C[C@H]2NC(C)=O)cc1	31.78%	-1.754%
Cc1ccc(-c2csc3c(=O)[nH]c(N4CCCC(C(=O)O)C4)nc23)cc1 (centres undefined)	-10.49%	10.43%
Cc1cnc(C)c(N2CCN(CC3CCCO3)CC2)n1 (centres undefined)	-3.821%	8.696%
Cc1ccc(NC2CCN(C(=O)CCc3ccco3)CC2)nn1	2.937%	27.69%
COCCN1C[C@H]2CN(C(=O)NCc3ccccc3)CCN2C1=O	-26.36%	25%
c1ccc(CC2(CNCc3ncc[nH]3)CCC2)cc1	-14.89%	0%
c1cnc(NCc2noc3c2CN(c2cnccn2)CC3)nc1	12.48%	9.434%
CN1CCC(N(Cc2ccccc2)C(=O)c2ccn3ccnc3c2)CC1	4.149%	8.333%
Cc1ncncc1-c1ccnc(N)n1	2.407%	5.714%
CSc1cc2c(cc1NC(=O)NCC(C)(C)C(N)=O)OCCO2	-13.31%	11.54%
Cc1ccc(C(C)N(C)CCS(=O)(=O)CCC(N)=O)cc1 (centres undefined)	-0.3136%	12.82%
CNC(=O)[C@@]12CCO[C@@H]1CCN(S(=O)(=O)c1ccccc1F)C2	16.89%	9%
CCOc1cc(F)ccc1NC1CCN(CC(F)(F)F)C1=O (centres undefined)	-12.24%	5.181%
Cc1ccc2c(n1)N(CC1CC1)CCN(Cc1cnn(C)c1)C2	-32.61%	-1.923%
Cc1cc(C)n(CC2CCCCN2C(=O)c2ccc3c(c2)COC3)n1 (centres undefined)	-10.59%	8.621%
Cc1cnc(C(=O)N2CCCN(Cc3csc(C)n3)CC2)cn1	-8.456%	17.14%
COC(CNC(=O)C1CCN(S(C)(=O)=O)CC1)c1ccc(C)s1 (centres undefined)	-22.35%	2.597%
O=C(NCCc1ccc(I)s1)N1CCC1	-29.38%	7.826%
CCOCc1cccc(NC(=O)C2COCCO2)c1 (centres undefined)	-7.652%	1.653%
O=C1CN(C(=O)c2ccc(F)cc2)CC(O)CN1Cc1cccs1 (centres undefined)	-7.133%	16.33%
Fc1ccc(CNCCn2cccn2)cc1F	-	16.88%

The first 5 entries again:

| compound | A | B |
|---|---|---|
| `N#Cc1cccc(CN2C[C@@H](F)[C@@H](OCc3nc4ccccc4[nH]3)C2)c1` | -39.13% | 32.43% |
| `O=C1CCC2(CCCN(Cc3ccccc3F)C2)N1CC1CC1` (centres undefined) | -26.54% | 13.59% |
| `O=C(NCC(=O)N1CCCC(n2cncn2)C1)OCc1ccccc1` (centres undefined) | -0.09461% | 7.895% |
| `Fc1ccc(Cn2ncc3c2CN(c2noc(C4CC4)n2)C3)cc1` | -38.51% | 8.333% |
| `CC1CN(C)c2ccccc2CN1C(=O)c1ccc[nH]1` (centres undefined) | -10.95% | 23.08% |